Laboratory results from US7563760 (GENETICS INSTITUTE, dated 2009).
No constants are given. Whether binding was seen depends on the method and setting. Some results given as binding are weak or reduced against the parent protein; the word gives no strength. Sequences can lack the tags named with a protein.

Experiments:
[1] = molecular target: T1, chimeric protein comprising the extracellular domain of human E-selectin and the Fc portion of human IgG1 (Example 12, made in baculovirus-infected Trichoplusia ni cells) (human) (UniProt P16581); assay: sequential affinity capture and immunoprecipitation (FIG. 27)
T1 sequence (looked up): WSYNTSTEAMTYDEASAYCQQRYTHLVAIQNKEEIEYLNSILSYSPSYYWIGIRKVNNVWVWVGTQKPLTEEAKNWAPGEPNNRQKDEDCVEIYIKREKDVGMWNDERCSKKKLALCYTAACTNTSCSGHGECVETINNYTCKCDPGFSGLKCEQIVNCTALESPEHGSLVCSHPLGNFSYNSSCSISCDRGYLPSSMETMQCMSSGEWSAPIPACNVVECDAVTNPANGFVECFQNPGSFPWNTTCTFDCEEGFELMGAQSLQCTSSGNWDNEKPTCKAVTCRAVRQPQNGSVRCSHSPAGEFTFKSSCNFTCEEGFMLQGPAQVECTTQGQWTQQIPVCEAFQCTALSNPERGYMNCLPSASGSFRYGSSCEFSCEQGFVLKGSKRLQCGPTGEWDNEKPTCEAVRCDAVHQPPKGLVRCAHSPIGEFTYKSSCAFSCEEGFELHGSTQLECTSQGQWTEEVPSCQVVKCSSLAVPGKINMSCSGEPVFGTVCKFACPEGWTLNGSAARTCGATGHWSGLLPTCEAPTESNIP

[2] = molecular target: T1, chimeric protein comprising the extracellular domain of human E-selectin and the Fc portion of human IgG1 (Example 12, made in baculovirus-infected Trichoplusia ni cells) (human); assay: affinity precipitation from 3H-glucosamine-labelled U937 membrane extracts (FIG. 26)
[3] = molecular target: T1, chimeric protein comprising the extracellular domain of human E-selectin and the Fc portion of human IgG1 (Example 12, made in baculovirus-infected Trichoplusia ni cells) (human); assay: affinity precipitation with E-selectin chimera

binding [1]: binds | binding [2]: binds | binding [3]: binds
B1: native PSGL-1 of U937 cells (major glycoprotein captured from detergent extracts) (ligand, human, UniProt Q14242 42-412, looked up)
chain: QATEYEYLDYDFLPETEPPEMLRNSTDTTPLTGPGTPESTTVEPAARRSTGLDAGGAVTELTTELANMGNLSTDSAAMEIQTTQPAATEAQTTQPVPTEAQTTPLAATEAQTTRLTATEAQTTPLAATEAQTTPPAATEAQTTQPTGLEAQTTAPAAMEAQTTAPAAMEAQTTPPAAMEAQTTQTTAMEAQTTAPEATEAQTTQPTATEAQTTPLAAMEALSTEPSATEALSMEPTTKRGLFIPFSVSSVTHKGIPMAASNLSVNYPVGAPDHISVKQCLLAILILALVATIFFVCTVVLAVRLSRKGHMYPVRNYSPTEMVCISSLLPDGGEGPSATANGGLSKAKSPGLTPEPREDREGDDLTLHSFLP
modifications: native myeloid glycosylation, 3H-glucosamine labelled
notes: 200-220 kD non-reduced, 100-120 kD reduced; also called U937 ligand; major U937 glycoprotein
